Results published in the supplement of paper PMC12819154, “High-throughput peptide-centric local stability assay extends protein–ligand identification to membrane proteins, tissues and bacteria” (Nature Structural & Molecular Biology, 2025).
The other results are listed elsewhere or left out. Small differences around the control level are noise.

Sequences of proteins named here, by UniProt entry; tags and fusion partners are left off. A change or cut given only in a name is not applied to a line headed by its entry.
UniProt P06748, whole entry: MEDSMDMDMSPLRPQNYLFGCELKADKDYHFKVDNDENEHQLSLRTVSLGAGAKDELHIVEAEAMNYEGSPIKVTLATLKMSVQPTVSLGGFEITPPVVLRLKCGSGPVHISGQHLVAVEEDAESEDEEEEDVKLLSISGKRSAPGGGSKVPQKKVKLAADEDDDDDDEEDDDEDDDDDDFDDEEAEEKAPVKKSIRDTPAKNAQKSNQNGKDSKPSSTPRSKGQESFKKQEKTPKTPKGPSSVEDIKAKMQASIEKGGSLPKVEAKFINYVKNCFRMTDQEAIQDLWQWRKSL
UniProt P09884: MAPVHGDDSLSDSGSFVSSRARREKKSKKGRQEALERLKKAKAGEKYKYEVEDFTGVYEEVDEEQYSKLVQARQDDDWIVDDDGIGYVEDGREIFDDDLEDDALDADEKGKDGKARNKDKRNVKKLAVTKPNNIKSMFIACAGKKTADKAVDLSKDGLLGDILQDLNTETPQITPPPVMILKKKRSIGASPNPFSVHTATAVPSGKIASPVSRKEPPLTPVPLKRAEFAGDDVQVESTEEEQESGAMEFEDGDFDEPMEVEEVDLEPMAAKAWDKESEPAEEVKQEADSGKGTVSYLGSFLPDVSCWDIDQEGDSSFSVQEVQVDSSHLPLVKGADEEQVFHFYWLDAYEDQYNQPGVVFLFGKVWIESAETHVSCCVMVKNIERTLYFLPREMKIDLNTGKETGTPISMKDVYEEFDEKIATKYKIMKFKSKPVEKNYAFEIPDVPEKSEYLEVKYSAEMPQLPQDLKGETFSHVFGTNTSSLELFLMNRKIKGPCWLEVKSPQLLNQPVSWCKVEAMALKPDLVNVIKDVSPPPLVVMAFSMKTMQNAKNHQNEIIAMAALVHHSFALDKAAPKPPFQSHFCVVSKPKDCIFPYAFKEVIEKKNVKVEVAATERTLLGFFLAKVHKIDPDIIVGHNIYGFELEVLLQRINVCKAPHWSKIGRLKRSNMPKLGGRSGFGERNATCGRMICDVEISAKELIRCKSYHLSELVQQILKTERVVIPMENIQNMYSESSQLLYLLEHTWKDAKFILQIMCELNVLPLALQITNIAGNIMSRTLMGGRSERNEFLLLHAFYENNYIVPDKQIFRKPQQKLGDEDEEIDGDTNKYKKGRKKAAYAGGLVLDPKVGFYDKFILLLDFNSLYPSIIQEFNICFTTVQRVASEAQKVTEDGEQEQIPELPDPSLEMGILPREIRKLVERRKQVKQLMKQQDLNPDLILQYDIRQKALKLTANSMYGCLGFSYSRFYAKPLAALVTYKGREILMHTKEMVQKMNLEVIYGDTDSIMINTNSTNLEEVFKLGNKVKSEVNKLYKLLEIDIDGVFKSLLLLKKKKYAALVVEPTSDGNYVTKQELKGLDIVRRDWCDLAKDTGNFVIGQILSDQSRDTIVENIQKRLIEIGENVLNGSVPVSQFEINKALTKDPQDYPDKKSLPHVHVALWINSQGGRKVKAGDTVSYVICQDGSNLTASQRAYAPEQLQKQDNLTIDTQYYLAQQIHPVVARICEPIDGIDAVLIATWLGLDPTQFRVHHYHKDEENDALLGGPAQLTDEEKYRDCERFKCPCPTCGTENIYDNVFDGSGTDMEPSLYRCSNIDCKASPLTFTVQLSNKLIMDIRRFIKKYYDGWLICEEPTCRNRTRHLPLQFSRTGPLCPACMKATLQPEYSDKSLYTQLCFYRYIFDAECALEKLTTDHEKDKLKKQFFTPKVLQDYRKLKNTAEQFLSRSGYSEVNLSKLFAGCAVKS
UniProt P06132: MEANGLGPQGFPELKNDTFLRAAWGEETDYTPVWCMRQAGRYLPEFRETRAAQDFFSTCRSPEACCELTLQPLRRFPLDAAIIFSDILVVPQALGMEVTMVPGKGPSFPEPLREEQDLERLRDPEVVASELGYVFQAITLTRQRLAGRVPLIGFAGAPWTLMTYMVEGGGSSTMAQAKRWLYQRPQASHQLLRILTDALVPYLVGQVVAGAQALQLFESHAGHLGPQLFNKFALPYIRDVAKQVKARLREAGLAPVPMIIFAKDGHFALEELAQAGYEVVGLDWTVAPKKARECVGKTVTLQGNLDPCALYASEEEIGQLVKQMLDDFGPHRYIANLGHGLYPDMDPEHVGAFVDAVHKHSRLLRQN
UniProt P08123: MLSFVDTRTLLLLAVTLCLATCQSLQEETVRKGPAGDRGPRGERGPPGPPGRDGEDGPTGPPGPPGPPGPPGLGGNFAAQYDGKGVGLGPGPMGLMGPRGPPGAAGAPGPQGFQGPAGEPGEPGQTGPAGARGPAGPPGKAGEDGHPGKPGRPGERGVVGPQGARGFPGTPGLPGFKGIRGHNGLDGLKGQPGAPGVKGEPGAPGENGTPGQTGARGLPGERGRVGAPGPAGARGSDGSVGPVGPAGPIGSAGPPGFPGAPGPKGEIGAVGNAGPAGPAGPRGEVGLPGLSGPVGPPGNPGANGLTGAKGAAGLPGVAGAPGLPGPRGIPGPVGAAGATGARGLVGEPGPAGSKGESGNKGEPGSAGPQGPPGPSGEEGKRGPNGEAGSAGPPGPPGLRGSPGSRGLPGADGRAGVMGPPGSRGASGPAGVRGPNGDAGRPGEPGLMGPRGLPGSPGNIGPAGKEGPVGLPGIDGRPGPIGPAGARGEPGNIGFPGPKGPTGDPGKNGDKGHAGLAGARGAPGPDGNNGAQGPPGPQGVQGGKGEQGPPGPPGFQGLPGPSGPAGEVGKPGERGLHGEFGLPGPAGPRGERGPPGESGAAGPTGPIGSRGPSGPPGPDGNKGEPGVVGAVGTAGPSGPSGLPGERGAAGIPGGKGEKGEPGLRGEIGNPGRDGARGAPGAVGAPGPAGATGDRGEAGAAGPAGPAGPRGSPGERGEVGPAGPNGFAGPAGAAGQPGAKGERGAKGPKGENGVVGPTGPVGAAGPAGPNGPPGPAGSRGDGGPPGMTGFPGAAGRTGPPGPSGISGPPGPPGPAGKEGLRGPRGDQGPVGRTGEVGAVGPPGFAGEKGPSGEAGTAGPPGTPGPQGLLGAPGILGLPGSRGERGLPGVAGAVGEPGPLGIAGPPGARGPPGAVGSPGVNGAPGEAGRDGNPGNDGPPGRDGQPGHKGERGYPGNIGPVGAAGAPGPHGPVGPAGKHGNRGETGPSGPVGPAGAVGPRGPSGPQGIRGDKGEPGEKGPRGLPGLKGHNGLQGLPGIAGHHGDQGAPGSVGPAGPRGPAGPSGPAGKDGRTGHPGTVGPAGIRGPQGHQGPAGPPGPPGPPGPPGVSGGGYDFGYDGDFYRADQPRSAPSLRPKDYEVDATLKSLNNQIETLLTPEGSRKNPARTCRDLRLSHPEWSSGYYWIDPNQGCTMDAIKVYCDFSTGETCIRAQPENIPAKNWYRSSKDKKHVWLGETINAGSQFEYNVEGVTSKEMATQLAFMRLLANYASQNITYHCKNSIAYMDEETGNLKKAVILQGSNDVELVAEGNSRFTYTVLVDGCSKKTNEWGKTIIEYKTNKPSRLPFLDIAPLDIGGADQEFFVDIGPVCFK
UniProt P09105: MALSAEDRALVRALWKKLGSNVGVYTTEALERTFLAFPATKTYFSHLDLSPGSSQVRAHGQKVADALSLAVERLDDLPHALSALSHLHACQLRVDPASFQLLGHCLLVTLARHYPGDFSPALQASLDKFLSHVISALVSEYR
UniProt P11387: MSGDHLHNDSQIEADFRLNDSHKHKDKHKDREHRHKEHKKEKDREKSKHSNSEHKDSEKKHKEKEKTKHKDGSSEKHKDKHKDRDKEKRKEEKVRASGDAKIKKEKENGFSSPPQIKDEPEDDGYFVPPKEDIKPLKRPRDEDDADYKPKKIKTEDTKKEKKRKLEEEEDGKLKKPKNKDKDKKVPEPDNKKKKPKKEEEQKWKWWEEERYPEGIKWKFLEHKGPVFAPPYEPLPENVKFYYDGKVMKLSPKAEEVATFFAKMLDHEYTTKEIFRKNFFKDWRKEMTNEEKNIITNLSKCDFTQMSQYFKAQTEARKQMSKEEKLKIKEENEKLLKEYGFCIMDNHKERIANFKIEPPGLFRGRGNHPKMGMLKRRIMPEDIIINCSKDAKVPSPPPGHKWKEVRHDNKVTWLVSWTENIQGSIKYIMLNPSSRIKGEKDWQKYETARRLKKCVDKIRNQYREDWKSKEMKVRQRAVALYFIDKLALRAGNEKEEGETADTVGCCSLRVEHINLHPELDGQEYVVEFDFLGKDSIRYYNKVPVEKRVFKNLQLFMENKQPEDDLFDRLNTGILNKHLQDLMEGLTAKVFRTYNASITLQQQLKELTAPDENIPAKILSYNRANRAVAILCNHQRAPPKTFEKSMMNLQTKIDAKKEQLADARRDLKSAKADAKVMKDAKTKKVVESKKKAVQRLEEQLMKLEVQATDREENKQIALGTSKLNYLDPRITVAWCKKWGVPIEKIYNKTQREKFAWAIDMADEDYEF
UniProt P05114: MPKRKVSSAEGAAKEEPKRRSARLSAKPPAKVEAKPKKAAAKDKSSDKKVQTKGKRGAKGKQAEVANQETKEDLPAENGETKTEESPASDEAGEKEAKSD
UniProt P0CG12: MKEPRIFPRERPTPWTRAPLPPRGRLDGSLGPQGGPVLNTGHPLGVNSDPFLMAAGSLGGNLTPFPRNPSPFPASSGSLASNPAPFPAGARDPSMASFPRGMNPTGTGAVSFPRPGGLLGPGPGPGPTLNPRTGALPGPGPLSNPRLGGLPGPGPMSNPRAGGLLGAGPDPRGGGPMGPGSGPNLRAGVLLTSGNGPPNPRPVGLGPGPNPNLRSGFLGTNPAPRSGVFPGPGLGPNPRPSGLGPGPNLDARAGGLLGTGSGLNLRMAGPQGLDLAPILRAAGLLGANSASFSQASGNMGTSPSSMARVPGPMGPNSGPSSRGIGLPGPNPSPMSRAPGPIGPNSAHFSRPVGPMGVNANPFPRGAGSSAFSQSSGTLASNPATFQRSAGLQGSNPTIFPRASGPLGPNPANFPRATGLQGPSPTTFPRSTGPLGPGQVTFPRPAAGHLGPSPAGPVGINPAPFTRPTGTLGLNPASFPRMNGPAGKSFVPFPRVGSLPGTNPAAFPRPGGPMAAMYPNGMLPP
UniProt P11166: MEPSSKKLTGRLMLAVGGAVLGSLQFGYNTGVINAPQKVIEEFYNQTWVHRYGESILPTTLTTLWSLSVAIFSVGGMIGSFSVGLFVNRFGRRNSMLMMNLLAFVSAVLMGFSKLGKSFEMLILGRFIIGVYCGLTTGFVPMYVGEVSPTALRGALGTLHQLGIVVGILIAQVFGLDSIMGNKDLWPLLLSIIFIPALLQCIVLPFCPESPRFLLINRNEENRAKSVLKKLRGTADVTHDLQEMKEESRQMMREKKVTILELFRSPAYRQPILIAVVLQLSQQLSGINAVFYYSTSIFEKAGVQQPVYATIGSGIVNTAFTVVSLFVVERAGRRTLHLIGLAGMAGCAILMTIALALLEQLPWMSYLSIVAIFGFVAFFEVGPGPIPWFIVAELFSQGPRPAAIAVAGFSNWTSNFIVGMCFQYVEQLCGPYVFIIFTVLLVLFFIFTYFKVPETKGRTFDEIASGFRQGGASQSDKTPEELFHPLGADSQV
UniProt P08047, whole entry: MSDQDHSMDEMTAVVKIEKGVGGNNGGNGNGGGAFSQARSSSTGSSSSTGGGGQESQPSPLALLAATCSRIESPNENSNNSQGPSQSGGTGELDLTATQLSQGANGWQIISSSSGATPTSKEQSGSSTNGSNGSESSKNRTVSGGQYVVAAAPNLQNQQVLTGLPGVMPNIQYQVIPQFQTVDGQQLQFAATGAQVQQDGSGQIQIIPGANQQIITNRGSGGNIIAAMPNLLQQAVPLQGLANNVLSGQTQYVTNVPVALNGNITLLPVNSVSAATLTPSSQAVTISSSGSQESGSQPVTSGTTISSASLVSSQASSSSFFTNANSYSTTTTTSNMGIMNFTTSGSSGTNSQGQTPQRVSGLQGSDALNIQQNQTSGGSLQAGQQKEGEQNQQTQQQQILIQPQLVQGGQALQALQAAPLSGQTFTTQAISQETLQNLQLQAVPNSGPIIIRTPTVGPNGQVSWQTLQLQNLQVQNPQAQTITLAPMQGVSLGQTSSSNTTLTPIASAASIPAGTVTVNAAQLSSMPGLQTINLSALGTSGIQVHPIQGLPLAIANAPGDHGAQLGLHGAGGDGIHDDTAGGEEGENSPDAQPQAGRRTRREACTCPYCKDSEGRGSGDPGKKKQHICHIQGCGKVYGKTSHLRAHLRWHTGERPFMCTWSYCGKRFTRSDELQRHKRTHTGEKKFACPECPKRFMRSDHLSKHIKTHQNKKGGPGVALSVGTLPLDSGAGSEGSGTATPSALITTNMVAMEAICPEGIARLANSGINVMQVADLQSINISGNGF
UniProt P12829: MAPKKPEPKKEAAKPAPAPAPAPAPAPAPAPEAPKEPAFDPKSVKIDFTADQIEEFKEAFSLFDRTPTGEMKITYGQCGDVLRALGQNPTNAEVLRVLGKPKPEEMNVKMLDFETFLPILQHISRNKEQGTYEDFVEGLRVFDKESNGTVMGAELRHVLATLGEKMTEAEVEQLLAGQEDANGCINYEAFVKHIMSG

Each target was assayed with Cc1nc(Nc2ncc(C(=O)Nc3c(C)cccc3Cl)s2)cc(N2CCN(CCO)CC2)n1 [dasatinib] (assay: log2 fold change of tryptic peptide abundance, ligand vs vehicle (limited proteolysis) (log2 ratio); higher = more trypsin-susceptible (destabilized)). Settings: ligand concentration: 5 uM; sample: K562 cleared lysate.

Row | Target | log2 fold change
1 | POLR3D (peptide sequence: DDFLDDPGLR, peptide start residue: 161) (UniProt P05423) | 0.865
2 | UniProt P0DTW1 (peptide sequence: TPEEGEGQSQC, peptide start residue: 107) | 0.0866
3 | NPM1 (peptide sequence: TPKGPSSVEDIK, peptide start residue: 237) (UniProt P06748) | -0.4
4 | VIL1 (peptide sequence: AAVPDTVVEPALK, peptide start residue: 238) (UniProt P09327) | -0.526
5 | CCDC130 (peptide sequence: YYPPDFNPEK, peptide start residue: 10) (UniProt P13994) | 0.154
6 | CYBA (peptide sequence: ERPQIGGTIK, peptide start residue: 140) (UniProt P13498) | 0.0952
7 | POLA1 (peptide sequence: KLAVTKPNNIK, peptide start residue: 125) (UniProt P09884) | -0.579
8 | EEF1AKMT4 (peptide sequence: WETMDVR, peptide start residue: 109) (UniProt P0DPD7) | 0.256
9 | UROD (peptide sequence: WLYQRPQASHQLLR, peptide start residue: 180) (UniProt P06132) | 0.14
10 | COL1A2 (peptide sequence: GPAGPSGPAGK, peptide start residue: 1054) (UniProt P08123) | 0.142
11 | SKI (peptide sequence: YSAQIEDLQVK, peptide start residue: 663) (UniProt P12755) | 0.414
12 | UniProt P0CB38 (peptide sequence: NLDDTIDDEK, peptide start residue: 300) | 0.0713
13 | HBQ1 (peptide sequence: VADALSLAVER, peptide start residue: 63) (UniProt P09105) | -0.0898
14 | UniProt P07437 (peptide sequence: FPGQLNADLRK, peptide start residue: 242) | -0.29
15 | TOP1 (peptide sequence: KVPEPDNKK, peptide start residue: 184) (UniProt P11387) | -0.203
16 | RPN1 (peptide sequence: LKTEGSDLCDR, peptide start residue: 537) (UniProt P04843) | 0.254
17 | HMGN1 (peptide sequence: GKQAEVANQETK, peptide start residue: 60) (UniProt P05114) | 0.191
18 | COX4I1 (peptide sequence: SEDFSLPAYMDRR, peptide start residue: 30) (UniProt P13073) | 0.0807
19 | ALAS1 (peptide sequence: QMLMDAGLPVVHCPSHIIPVR, peptide start residue: 513) (UniProt P13196) | -0.668
20 | UniProt P0CG12 (peptide sequence: PVGLGPGPNPNLR, peptide start residue: 202) | -1.16
21 | CTSB (peptide sequence: HYGYNSYSVSNSEKDIMAEIYK, peptide start residue: 224) (UniProt P07858) | -0.838
22 | PRKAR2A (peptide sequence: IVDVIGEKIYKDGER, peptide start residue: 273) (UniProt P13861) | 0.189
23 | SLC2A1 (peptide sequence: TFDEIASGFR, peptide start residue: 459) (UniProt P11166) | -0.0599
24 | SP1 (peptide sequence: QHICHIQGCGK, peptide start residue: 625) (UniProt P08047) | -0.0955
25 | PFN1 (peptide sequence: CYEMASHLRR, peptide start residue: 128) (UniProt P07737) | 0.165
26 | IFI30 (peptide sequence: GMQLMHANAQR, peptide start residue: 184) (UniProt P13284) | 0.393
27 | MYL4 (peptide sequence: ESNGTVMGAELR, peptide start residue: 145) (UniProt P12829) | 0.117
28 | MYC (peptide sequence: PLNVSFTNR, peptide start residue: 2) (UniProt P01106) | -0.248

Two entries drawn at random from those above, as already listed:
Row | Target | log2 fold change
28 | MYC (peptide sequence: PLNVSFTNR, peptide start residue: 2) (UniProt P01106) | -0.248
16 | RPN1 (peptide sequence: LKTEGSDLCDR, peptide start residue: 537) (UniProt P04843) | 0.254
